The values below come from paper PMC4474691, “Leukemia-Associated Mutations in Nucleophosmin Alter Recognition by CRM1: Molecular Basis of Aberrant Transport” (PLoS ONE, 2015).

By UniProt entry, the sequences of proteins in these tests, tags left out. Where a name states a change or a piece, a line headed by the entry shows the natural chain unless it says otherwise. Chains listed by the source or under a name are the forms on record and can include a tag or linker.
UniProt Q6P5F9: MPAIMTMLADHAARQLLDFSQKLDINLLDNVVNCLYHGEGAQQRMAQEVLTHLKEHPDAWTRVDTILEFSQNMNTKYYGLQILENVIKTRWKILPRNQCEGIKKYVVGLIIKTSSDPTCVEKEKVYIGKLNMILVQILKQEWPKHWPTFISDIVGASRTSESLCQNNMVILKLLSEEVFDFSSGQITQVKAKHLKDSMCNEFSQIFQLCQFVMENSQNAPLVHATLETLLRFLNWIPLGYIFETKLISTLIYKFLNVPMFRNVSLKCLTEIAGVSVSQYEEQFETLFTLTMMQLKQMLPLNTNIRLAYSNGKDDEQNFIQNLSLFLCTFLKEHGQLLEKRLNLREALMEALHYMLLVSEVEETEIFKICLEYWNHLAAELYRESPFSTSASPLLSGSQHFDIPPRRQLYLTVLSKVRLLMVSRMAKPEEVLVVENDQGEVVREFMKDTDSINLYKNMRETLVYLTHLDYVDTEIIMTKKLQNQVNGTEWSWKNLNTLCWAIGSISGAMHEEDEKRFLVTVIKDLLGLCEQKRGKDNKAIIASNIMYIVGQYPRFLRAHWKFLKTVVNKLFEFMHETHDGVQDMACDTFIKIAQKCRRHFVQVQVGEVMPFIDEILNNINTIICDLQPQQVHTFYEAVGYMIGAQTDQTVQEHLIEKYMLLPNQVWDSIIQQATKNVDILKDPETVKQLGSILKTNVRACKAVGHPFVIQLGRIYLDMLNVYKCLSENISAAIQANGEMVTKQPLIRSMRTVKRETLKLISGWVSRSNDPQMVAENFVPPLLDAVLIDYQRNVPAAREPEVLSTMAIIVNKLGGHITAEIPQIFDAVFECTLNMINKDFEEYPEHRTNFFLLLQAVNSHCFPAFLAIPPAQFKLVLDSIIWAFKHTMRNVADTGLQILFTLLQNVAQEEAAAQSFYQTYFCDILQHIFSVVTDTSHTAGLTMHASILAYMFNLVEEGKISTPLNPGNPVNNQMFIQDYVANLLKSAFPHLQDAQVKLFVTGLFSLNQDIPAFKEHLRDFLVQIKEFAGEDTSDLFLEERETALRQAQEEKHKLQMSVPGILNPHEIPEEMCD
NPMmutE (AML-associated NPM mutant E) (P06748, form named): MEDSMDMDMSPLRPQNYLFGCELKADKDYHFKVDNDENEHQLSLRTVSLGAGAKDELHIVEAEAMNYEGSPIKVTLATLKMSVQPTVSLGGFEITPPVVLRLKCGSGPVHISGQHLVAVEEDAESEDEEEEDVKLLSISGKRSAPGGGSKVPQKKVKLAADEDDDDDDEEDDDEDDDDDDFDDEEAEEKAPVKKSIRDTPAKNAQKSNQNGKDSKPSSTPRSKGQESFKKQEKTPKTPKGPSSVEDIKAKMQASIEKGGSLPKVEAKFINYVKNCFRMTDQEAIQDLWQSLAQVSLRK

The assay has as its target CRM1^HA (high affinity mutant of CRM1) (UniProt Q6P5F9). Description: SEC; NPM variant 20 μM (pentamer) mixed with 40 μM CRM1^HA, 30 min at room temperature; Superdex 200 10/30, 20 mM Tris/HCl pH 7.4, 100 mM NaCl, 5 mM DTT, 2 mM MgCl2, 15°C; fractions analysed by SDS-PAGE; no RanGTP; both purified. A general note: SEC sorts molecules by how far they enter the pores of the column.

No constants are given. Whether binding was seen depends on the method and setting. Binding calls can cover weak binding; strength is not graded here.

“NPMmutE (AML-associated NPM mutant E) (from UniProt P06748 1-294)”: the binding result is “binds”.
